Measured values from PMC8626589.
These are yes or no findings as the source states them, for the method shown. In cells and extracts the contact can be indirect. Some entries that bind do so weakly or less than the wild type.

The chains behind the UniProt entries cited, without tags or fusion partners.
UniProt P16220: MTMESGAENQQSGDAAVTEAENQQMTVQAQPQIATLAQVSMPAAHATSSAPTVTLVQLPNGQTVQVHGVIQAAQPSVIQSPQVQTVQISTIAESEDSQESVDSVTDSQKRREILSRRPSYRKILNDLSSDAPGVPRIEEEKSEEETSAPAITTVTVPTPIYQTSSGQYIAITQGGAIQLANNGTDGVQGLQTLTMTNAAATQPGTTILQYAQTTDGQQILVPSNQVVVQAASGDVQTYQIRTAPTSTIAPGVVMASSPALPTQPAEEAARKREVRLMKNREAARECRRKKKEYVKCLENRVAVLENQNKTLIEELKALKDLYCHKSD

What was measured:
[1] = molecular target: T1, Repressor element 1-silencing transcription factor (REST), overexpressed in H4 astrocytes (UniProt Q13127); assay: co-IP; 400 μg nuclear extract of H4 astrocytes overexpressing REST, 2 μg antibody, protein A/G-agarose overnight at 4 °C, washed with RIPA buffer, extracts treated with DNase I; Western blot; which antibody precipitated is not told
T1 sequence: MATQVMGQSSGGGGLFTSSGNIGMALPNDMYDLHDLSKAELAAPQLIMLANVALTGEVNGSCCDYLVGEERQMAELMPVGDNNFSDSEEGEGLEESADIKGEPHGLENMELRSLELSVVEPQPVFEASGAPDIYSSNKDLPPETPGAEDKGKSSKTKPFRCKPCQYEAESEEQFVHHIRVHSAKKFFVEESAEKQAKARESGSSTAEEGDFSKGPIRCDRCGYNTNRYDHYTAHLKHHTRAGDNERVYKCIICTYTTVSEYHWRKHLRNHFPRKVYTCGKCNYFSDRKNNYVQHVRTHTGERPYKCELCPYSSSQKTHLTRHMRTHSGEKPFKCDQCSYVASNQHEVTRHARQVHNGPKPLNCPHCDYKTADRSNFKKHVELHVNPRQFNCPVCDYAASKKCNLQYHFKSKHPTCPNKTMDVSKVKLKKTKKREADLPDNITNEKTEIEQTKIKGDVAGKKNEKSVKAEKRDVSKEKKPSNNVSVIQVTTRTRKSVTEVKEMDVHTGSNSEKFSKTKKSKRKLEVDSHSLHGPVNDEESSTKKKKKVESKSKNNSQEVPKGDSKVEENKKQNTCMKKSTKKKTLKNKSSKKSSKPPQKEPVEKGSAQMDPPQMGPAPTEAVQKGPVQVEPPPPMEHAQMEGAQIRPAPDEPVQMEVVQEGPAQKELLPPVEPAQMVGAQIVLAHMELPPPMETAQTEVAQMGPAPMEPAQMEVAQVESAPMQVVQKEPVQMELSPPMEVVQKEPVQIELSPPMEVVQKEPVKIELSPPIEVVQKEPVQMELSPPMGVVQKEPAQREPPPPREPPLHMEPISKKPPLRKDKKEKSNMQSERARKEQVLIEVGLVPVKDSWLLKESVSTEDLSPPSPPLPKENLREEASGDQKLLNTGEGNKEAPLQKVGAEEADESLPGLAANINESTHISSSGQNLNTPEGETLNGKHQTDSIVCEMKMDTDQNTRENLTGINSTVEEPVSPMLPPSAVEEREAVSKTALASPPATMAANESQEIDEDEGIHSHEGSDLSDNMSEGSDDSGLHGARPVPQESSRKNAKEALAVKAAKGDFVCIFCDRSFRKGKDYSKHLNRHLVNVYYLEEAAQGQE

[2] = molecular target: T2, Repressor element 1-silencing transcription factor (REST) in H4 astrocytes (proximity ligation assay) (UniProt Q13127); assay: proximity ligation; H4 astrocytes fixed with 4% formaldehyde; primary antibodies for REST, CBP/p300 and/or CREB (1:250, 4 °C overnight); PLA puncta in the nuclear region; also done with DN-REST, said to interfere with the complexing
T2 sequence: T1 sequence

| Substance | binding [1] | binding [2] |
| --- | --- | --- |
| phosphorylated CREB (an active form of CREB) (from UniProt P16220 1-327) | binds | – |
| cAMP response element-binding protein (CREB) (from UniProt P16220 1-327) | – | binds |
